The supplement of paper PMC10398353
Where “and” joins values, the source holds several entries; their conditions need not be identical. Identical values can stand only once. Counter-ions that a name gives are not always drawn. ± gives the standard deviation of the averaged measurements. Some of the results follow. Single values of this set are uncertain.

test system: Salmonella enterica serovar Typhimurium ST313 D23580; test: normalized bacterial growth (OD600 20 h minus 0 h, interquartile-mean normalized) (fraction of plate interquartile mean); higher = more bacterial growth (less inhibition); settings: LPM (pH 5.8, low phosphate, low Mg2+), concentration: 10 µM, temperature: 37 °C

SMILES	normalized bacterial growth
CC[n+]1c(-c2ccccc2)c2cc(N)ccc2c2ccc(N)cc21	0.931
C[n+]1ccccc1C=NO	1.05
CNCCCN1c2ccccc2CCc2ccccc21 [Desipramine hydrochloride]	0.763
O=C(O)[C@]1(O)C[C@@H](O)[C@@H](O)[C@H](O)C1	1.2
O=C1CCC(N2C(=O)c3ccccc3C2=O)C(=O)N1 (stereo not drawn) [()-Thalidomide]	0.835
CC1(C)C[C@@H]2C(=O)CC[C@H]3O[C@]3(C)CC[C@H]21	0.956
CCN(CC)CCNC(=O)COc1ccc(OC)cc1	1.27
CCCCCCCCCCCCCCCCCC(=O)NCC(COP(=O)([O-])OCC[N+](C)(C)C)OCC (racemic) [rac-2-Ethoxy-3-octadecanamido-1-propylphosphocholine]	1.36
CC(=O)OCC1=C(C(=O)O)N2C(=O)[C@@H](NC(=O)Cc3cccs3)[C@H]2SC1 [Cephalothin sodium]	1.13
CCOc1ccc(NC(=O)CC(C)O)cc1 (stereo not drawn)	1.22
COc1c(O)c2c(=O)cc(OC)c3c4c(OC)cc(=O)c5c(O)c(OC)c6c(c(c1CC(C)=C6C(C)=O)c23)c54	0.821
COc1c(O)cc2oc3cc(O)c(CC=C(C)C)c(O)c3c(=O)c2c1CC=C(C)C [alpha-MANGOSTIN]	0.979
C=CCCCCCCCCC(=O)O	1.12
COC(=O)C[C@H]1C(C)(C)[C@@H](OC(C)=O)[C@@H]2CC3C4CC(=O)O[C@@H](c5ccoc5)[C@]4(C)CCC3[C@@]1(C)C2=O (stereo partly drawn)	0.846
CC1(C)S[C@@H]2[C@H](NC(=O)Cc3ccccc3)C(=O)N2[C@H]1C(=O)O	1.05
CCCCc1nc(Cl)c(CO)n1Cc1ccc(-c2ccccc2-c2nnn[nH]2)cc1	0.998
CC(C)=CCOc1cc2oc(=O)ccc2cc1O	1.11
O=C1C(SCCO)=C(SCCO)C(=O)c2ccccc21	0.903
COc1cc(/C=C/C(=O)CC(=O)/C=C/c2ccc(O)c(OC)c2)ccc1O	0.626 ± 0.18
Cc1cc2nc3c(=O)[nH]c(=O)nc-3n(CC(O)C(O)C(O)COP(=O)(O)O)c2cc1C (stereo not drawn)	1.17
CCCn1c(=O)c2[nH]c(-c3ccc(OCC(=O)Nc4ccc(C#N)cc4)cc3)nc2n(CCC)c1=O	1.12
NCC[C@H](O)C(=O)N[C@@H]1C[C@H](N)[C@@H](O[C@H]2O[C@H](CN)[C@@H](O)[C@H](O)[C@H]2O)[C@H](O)[C@H]1O[C@H]1O[C@H](CO)[C@@H](O)[C@H](N)[C@H]1O	1.01

SMILES	normalized bacterial growth
NCC[C@H](O)C(=O)N[C@@H]1C[C@H](N)[C@@H](O[C@H]2O[C@H](CN)[C@@H](O)[C@H](O)[C@H]2O)[C@H](O)[C@H]1O[C@H]1O[C@H](CO)[C@@H](O)[C@H](N)[C@H]1O [Amikacin hydrate]	0.266
COc1ccc2c(c1)OC[C@@H](Cc1ccc(OC)c(OC)c1)[C@H]2O	0.807
NC(C(=O)O)c1cc(O)cc(O)c1 ["(S)-3,5-Dihydroxyphenylglycine"]	0.951
CN(C/C=C/C#CC(C)(C)C)Cc1cccc2ccccc12	0.649
Fc1ccc([C@@H]2CCNC[C@H]2COc2ccc3c(c2)OCO3)cc1 [Paroxetine hydrochloride hemihydrate (MW = 374.83)]	0.796
C=C1CCC2C(CC2(C)C)C(=O)CCC1O (stereo not drawn)	1.06
NC(CO)C(=O)NNCc1ccc(O)c(O)c1O (stereo not drawn) [Benserazide hydrochloride]	0.725
C[C@H]1COc2c(N3CCN(C)CC3)c(F)cc3c(=O)c(C(=O)O)cn1c23	0.123
CN(C)CCCN1c2ccccc2CCc2ccccc21 [Imipramine hydrochloride]	0.963
Cc1cccc(C(=O)NCN2CCN(c3ccccc3C#N)CC2)c1 ["PD 168,077 maleate"]	1.07
O=C(NC1CCCCC1)NC1CCCCC1	1.38
CN1CCC(OC(c2ccccc2)c2ccccc2)CC1	1.05
O=C(Oc1cccc2cccnc12)c1ccccc1	0.926
C/C=C1\[C@H]2C=C(C)C[C@]1(N)c1ccc(=O)[nH]c1C2	0.988 and 1.18
C[N+](C)(C)CCO.[Cl-]	1.15
Nc1ccc2c3c(cccc13)C(=O)NC2=O ["4-Amino-1,8-naphthalimide"]	0.993
Cc1cc(O)c2c(c1)C(=O)c1cc(O)cc(O)c1C2=O	0.973
C[C@H](CCC(=O)O)[C@H]1CC[C@H]2[C@@H]3CC[C@@H]4C[C@H](O)CC[C@]4(C)[C@H]3CC[C@]12C	1.04
C[C@H](CCC(=O)O)[C@H]1CC[C@H]2[C@@H]3CC[C@@H]4C[C@H](O)CC[C@]4(C)[C@H]3CC[C@]12C [Lithocholic acid]	0.831
CC(=O)SCC(Cc1ccccc1)C(=O)NCC(=O)OCc1ccccc1 (stereo not drawn) [Racecadotril]	1.02
O=C(O)CCCC[C@@H]1SC[C@@H]2NC(=O)N[C@@H]21	1.23
O=C(O)CCCC[C@@H]1SC[C@@H]2NC(=O)N[C@@H]21 [Biotin]	1.07

SMILES	normalized bacterial growth
CCOC(=O)Nc1ccc(NCc2ccc(F)cc2)nc1N [Flupirtine maleate]	0.79
C[C@@]1(O)CCOC(=O)C1 ["Mevalonic-D, L acid lactone"]	1.02
COCC(=O)Nc1c(I)c(C(=O)NCC(O)CO)c(I)c(C(=O)N(C)CC(O)CO)c1I (stereo not drawn) [Iopromide]	1.02
CC1COc2c(N3CCN(C)CC3)c(F)cc3c(=O)c(C(=O)O)cn1c23 (stereo not drawn) [Ofloxacin]	0.0196
COc1c2c(nc3ccccc13)OC(C(C)(O)CO)C2 (stereo not drawn)	1.02
Cn1cnc([N+](=O)[O-])c1Sc1ncnc2[nH]cnc12 [Azathioprine]	0.888 ± 0.15
Cn1cnc([N+](=O)[O-])c1Sc1ncnc2[nH]cnc12	1.07
CC(C)C(=O)Nc1ccc([N+](=O)[O-])c(C(F)(F)F)c1 [Flutamide]	0.837
CC(=O)OCC[N+](C)(C)C	1.14
CC1(C)CCC2=C(O1)c1ccccc1C(=O)C2=O	1.09
OCCN1C[C@H](O)[C@@H](O)[C@H](O)[C@H]1CO	1.05
CC(=O)O[C@@H]1CC2C(C)(C)C(=O)CC[C@]2(C)C2CC[C@]3(C)C(=CC(=O)O[C@H]3c3ccoc3)[C@@]21C (stereo partly drawn)	0.63
CC(=O)O[C@H]1C[C@@H](OC(C)=O)C(C)(C)C2CC(=O)[C@]3(C)C(CC[C@@]4(C)[C@H](c5ccoc5)OC(=O)[C@H]5O[C@]543)[C@]21C (stereo partly drawn)	0.884
O=C(O)c1nc2cc(Cl)c(Cl)cc2nc1O	1.05
O=C(O)Cc1ccccc1Nc1c(Cl)cccc1Cl [Diclofenac sodium]	1.12
O=C(O)Cc1ccccc1Nc1c(Cl)cccc1Cl	1.01
O=c1cc(-c2cc(O)c(O)c(O)c2)oc2cc(O)cc(O)c12	1.14
CN1CCN(CCCN2c3ccccc3Sc3ccc(S(=O)(=O)N(C)C)cc32)CC1 [Thioproperazine dimesylate]	0.967
C[C@@H]1O[C@@H](Oc2c(-c3ccc(O)c(O)c3)oc3cc(O)cc(O)c3c2=O)[C@H](O)[C@H](O)[C@H]1O	0.976 ± 0.091
CC(=O)Oc1cc(C(F)(F)F)ccc1C(=O)O [Triflusal]	1.14
N=c1ccn2c(n1)O[C@H]1[C@H](O)[C@@H](CO)O[C@H]12	1.09
N=c1ccn2c(n1)O[C@H]1[C@H](O)[C@@H](CO)O[C@H]12 [Ancitabine hydrochloride]	1.21

SMILES	normalized bacterial growth
C[N+](C)(C)CCO.[Br-] [Choline bromide]	1.06
O=c1[nH]cc(F)c(=O)[nH]1 [5-Fluorouracil]	0.141
O=C(O)c1cc(=O)c2cccc(O)c2[nH]1	1.23
C[C@]12C=CC(=O)C=C1CC[C@@H]1[C@@H]2[C@@H](O)C[C@@]2(C)[C@H]1CC[C@]2(O)C(=O)CO	1
C[C@]12C=CC(=O)C=C1CC[C@@H]1[C@@H]2[C@@H](O)C[C@@]2(C)[C@H]1CC[C@]2(O)C(=O)CO [Prednisolone]	0.924
CC(C)Cc1ccc([C@H](C)C(=O)O)cc1 [S(+)-Ibuprofen]	1.16
CS(=O)(=O)c1ccc([C@@H](O)[C@@H](CO)NC(=O)C(Cl)Cl)cc1	1.22
NS(=O)(=O)c1cc2c(cc1Cl)N=C(CSCc1ccccc1)NS2(=O)=O	1.21
CC(=O)OC/C=C(C)/C=C/C=C(C)/C=C/C1=C(C)CCCC1(C)C	0.666
O=C1C(CC[S+]([O-])c2ccccc2)C(=O)N(c2ccccc2)N1c1ccccc1 (stereo not drawn)	1.03
Cc1ccccc1/C=C/C1=NCCN1 [Metrazoline oxalate]	1.09
COc1ccc(CCN(C)CCc2ccc(OC)c(OC)c2)cc1OC [YS-035 hydrochloride]	0.692
CC[N+](CC)(CC)CC [Tetraethylammonium chloride]	0.962
CC[C@@]1(O)C(=O)OCc2c1cc1n(c2=O)Cc2cc3cc(O)ccc3nc2-1	1.3 and 0.787
CO[C@@]1(NC(=O)C(C(=O)O)c2ccc(O)cc2)C(=O)N2C(C(=O)O)=C(CSc3nnnn3C)CO[C@@H]21 (stereo partly drawn) [Moxalactam disodium salt]	0.6
CO[C@@]1(NC(=O)C(C(=O)O)c2ccc(O)cc2)C(=O)N2C(C(=O)O)=C(CSc3nnnn3C)CO[C@@H]21 (stereo partly drawn)	1.11
O=c1c(O)c(-c2ccccc2)oc2ccccc12	0.45
C#C[C@]1(O)CC[C@H]2[C@@H]3CCC4=CC(=O)CC[C@@H]4[C@H]3CC[C@@]21C	1.27
C#C[C@]1(O)CC[C@H]2[C@@H]3CCC4=CC(=O)CC[C@@H]4[C@H]3CC[C@@]21C [Norethindrone]	1.13
COc1cc2c(CCNC(C)=O)c[nH]c2cc1O [6-Hydroxymelatonin]	0.906
C#C[C@]1(OC(C)=O)CC[C@H]2[C@@H]3CCC4=C[C@@H](OC(C)=O)CC[C@@H]4[C@H]3CC[C@@]21C [Ethynodiol diacetate]	0.943
C#C[C@]1(OC(C)=O)CC[C@H]2[C@@H]3CCC4=C[C@@H](OC(C)=O)CC[C@@H]4[C@H]3CC[C@@]21C	1.01
